From the supplement of paper PMC10849652
The other results are listed elsewhere or left out.

Chains of the proteins cited; added tags and fusions are not shown. Lines headed by an entry give the natural chain unless they say otherwise; changes in a name come on top.
UniProt Q5BKX6: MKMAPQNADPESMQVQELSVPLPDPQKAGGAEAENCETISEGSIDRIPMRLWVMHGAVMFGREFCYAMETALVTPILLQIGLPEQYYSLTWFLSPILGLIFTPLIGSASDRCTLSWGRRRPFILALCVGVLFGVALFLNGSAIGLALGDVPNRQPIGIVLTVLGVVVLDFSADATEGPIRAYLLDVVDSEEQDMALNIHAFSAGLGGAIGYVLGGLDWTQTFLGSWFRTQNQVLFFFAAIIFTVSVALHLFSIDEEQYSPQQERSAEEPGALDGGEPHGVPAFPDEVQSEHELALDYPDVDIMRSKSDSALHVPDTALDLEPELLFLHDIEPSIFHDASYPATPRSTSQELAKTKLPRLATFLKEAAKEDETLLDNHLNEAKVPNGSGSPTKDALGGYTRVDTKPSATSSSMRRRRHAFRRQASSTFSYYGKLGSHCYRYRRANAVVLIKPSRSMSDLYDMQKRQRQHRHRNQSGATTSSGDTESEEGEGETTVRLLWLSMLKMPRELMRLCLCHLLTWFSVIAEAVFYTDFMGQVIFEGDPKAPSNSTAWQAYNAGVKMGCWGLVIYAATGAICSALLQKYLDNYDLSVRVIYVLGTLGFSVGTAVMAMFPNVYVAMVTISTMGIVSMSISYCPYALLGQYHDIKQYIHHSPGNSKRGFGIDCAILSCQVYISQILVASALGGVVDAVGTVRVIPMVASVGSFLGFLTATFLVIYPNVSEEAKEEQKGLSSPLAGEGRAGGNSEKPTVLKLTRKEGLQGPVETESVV
UniProt Q15043: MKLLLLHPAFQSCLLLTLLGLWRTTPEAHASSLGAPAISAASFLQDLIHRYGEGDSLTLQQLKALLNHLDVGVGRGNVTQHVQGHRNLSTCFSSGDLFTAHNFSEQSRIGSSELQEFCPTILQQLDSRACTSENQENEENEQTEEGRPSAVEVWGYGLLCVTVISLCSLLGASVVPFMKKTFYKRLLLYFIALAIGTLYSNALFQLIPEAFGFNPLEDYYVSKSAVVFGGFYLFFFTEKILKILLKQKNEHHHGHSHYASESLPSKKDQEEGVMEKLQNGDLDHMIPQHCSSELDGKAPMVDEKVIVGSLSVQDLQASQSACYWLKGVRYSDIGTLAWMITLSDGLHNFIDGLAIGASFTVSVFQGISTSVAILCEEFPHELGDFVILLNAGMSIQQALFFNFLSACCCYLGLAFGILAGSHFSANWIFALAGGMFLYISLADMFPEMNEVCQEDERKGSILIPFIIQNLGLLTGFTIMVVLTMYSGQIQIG
UniProt P53794: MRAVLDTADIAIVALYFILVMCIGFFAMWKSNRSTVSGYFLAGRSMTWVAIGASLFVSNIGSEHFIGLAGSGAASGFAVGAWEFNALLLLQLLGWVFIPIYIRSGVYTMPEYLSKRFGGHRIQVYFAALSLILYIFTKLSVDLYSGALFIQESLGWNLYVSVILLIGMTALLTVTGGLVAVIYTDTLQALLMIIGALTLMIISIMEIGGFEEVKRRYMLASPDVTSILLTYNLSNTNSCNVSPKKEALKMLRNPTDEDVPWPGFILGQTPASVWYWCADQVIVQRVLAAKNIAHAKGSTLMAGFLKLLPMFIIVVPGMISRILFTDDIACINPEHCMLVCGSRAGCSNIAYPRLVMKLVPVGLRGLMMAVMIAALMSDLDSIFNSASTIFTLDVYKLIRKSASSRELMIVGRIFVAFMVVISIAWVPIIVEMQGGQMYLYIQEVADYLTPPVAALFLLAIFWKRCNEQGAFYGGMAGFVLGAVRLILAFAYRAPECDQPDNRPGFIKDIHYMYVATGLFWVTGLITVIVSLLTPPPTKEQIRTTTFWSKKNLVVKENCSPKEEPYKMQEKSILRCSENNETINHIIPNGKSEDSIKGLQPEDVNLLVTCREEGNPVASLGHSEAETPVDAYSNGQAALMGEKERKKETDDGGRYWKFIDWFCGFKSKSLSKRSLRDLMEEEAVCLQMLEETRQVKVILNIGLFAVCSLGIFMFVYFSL
UniProt Q9BSK2: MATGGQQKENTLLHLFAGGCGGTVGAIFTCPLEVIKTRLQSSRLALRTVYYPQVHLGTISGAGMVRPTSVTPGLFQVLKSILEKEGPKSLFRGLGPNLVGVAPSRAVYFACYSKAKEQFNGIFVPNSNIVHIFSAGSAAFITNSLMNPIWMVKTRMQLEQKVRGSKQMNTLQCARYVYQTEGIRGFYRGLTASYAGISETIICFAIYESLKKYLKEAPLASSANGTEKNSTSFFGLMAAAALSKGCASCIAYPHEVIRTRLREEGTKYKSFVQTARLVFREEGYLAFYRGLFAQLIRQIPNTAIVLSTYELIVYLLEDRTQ
UniProt Q70HW3: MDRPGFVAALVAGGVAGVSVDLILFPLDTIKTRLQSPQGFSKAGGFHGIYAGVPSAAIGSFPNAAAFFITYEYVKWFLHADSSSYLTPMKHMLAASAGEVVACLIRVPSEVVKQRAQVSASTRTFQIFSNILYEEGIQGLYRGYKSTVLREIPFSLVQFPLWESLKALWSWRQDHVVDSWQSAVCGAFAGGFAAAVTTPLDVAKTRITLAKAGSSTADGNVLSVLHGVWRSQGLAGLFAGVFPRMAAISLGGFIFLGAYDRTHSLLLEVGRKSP
UniProt O43808: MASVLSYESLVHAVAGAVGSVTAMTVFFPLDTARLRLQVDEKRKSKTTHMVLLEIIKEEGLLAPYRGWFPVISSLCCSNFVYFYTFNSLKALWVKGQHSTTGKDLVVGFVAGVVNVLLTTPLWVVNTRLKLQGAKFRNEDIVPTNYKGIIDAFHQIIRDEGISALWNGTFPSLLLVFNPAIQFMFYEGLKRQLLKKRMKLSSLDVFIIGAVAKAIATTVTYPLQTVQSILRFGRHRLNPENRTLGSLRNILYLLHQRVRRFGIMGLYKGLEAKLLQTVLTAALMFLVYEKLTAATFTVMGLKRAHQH
UniProt Q9H1U9: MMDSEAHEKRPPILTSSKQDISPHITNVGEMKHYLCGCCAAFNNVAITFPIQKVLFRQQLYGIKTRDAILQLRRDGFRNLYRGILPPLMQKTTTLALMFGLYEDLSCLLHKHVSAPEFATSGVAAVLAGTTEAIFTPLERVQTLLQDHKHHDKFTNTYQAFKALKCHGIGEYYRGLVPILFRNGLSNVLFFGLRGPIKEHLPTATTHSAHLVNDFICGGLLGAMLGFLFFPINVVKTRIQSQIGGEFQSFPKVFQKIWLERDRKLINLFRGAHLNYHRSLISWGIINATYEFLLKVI
UniProt Q92536: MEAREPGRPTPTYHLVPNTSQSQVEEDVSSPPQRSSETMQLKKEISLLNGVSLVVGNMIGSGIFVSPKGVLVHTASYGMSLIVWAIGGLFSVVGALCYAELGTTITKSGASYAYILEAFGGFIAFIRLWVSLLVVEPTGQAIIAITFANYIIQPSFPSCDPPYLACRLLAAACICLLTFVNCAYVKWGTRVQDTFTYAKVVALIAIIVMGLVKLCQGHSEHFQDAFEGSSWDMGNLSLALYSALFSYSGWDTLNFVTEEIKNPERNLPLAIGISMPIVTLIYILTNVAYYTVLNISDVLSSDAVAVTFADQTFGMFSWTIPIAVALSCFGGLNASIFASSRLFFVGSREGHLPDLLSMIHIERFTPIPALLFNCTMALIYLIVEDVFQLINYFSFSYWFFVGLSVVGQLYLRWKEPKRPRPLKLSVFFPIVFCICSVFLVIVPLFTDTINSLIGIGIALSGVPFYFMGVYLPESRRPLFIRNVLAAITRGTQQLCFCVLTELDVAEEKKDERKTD
UniProt Q6ZP29: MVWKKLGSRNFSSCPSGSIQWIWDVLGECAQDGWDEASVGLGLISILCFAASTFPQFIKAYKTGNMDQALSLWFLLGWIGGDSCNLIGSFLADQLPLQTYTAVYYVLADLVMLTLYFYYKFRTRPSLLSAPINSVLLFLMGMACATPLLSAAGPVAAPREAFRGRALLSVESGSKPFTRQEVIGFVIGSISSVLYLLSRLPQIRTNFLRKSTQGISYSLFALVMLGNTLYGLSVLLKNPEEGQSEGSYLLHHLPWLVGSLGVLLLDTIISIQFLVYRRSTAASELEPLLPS
UniProt Q9Y289: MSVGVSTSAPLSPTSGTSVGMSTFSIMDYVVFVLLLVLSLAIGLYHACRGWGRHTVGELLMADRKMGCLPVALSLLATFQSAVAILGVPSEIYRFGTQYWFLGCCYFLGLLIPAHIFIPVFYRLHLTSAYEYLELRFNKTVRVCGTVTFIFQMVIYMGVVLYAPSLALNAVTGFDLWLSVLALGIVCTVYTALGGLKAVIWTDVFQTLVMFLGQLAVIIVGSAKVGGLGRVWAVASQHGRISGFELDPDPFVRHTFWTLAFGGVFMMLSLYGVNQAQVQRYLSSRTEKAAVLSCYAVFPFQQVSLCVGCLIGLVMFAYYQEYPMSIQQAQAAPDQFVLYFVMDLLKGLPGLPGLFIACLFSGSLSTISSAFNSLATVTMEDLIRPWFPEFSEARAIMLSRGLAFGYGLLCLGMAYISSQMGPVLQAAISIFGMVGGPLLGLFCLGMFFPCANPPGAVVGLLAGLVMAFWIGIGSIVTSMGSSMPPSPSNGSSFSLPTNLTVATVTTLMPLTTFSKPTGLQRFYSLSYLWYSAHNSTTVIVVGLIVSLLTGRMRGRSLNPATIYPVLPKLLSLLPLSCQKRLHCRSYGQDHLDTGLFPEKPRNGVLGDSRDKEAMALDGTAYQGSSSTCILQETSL
UniProt Q5SVS4: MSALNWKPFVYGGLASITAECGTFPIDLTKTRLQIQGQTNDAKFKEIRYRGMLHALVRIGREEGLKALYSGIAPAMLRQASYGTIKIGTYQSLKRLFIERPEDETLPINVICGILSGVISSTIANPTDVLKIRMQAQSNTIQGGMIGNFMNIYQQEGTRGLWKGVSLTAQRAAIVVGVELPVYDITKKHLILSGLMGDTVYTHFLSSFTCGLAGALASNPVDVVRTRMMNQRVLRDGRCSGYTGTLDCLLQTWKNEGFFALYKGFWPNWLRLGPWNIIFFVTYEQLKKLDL
UniProt Q9H2D1: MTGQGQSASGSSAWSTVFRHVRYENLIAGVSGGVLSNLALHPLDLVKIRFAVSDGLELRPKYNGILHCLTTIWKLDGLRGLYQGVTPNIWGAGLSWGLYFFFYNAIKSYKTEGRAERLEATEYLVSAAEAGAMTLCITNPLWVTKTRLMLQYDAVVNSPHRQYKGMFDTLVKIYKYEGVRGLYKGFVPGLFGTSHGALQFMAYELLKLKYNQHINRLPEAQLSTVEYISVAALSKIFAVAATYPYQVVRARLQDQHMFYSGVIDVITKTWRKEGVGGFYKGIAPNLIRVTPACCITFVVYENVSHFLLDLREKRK
UniProt Q6NXT4: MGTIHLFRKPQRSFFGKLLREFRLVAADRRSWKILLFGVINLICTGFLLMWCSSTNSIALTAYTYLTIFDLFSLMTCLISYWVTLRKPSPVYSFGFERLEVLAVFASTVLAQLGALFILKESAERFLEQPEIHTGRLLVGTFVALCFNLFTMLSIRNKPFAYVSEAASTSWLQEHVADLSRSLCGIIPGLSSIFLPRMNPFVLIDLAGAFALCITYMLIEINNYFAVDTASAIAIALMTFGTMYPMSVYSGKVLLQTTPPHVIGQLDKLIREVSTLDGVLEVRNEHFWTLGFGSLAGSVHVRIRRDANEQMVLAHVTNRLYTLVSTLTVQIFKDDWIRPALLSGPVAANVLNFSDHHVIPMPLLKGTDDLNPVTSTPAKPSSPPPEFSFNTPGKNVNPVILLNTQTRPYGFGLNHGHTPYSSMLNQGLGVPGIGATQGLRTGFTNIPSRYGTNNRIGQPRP
UniProt Q96AG3: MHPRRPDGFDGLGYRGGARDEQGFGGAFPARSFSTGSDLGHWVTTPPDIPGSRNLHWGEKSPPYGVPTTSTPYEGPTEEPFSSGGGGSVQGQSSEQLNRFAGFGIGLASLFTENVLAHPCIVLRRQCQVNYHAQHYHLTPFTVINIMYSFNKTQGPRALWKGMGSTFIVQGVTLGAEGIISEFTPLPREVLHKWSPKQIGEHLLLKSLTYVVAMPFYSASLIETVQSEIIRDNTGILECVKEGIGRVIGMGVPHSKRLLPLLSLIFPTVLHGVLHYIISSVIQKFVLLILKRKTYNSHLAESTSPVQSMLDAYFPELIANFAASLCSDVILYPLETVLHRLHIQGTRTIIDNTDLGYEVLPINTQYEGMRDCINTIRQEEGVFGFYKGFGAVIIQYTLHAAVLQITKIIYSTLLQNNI
UniProt Q92504: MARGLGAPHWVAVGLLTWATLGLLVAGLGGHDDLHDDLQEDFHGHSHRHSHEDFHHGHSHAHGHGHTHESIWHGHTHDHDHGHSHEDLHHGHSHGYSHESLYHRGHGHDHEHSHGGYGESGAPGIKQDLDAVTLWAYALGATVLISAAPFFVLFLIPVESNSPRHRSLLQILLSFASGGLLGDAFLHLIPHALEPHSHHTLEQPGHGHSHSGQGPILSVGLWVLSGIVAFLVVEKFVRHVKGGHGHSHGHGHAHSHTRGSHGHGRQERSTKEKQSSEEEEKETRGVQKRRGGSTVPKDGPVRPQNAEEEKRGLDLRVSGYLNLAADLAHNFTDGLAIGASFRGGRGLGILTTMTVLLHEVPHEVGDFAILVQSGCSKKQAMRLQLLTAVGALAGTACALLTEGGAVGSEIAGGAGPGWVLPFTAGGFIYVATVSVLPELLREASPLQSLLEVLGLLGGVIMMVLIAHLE

Each target was assayed with Cn1cncc1[C@@](N)(c1ccc(Cl)cc1)c1ccc2c(c1)c(-c1cccc(Cl)c1)cc(=O)n2C [tipifarnib] (assay: log2 fold change, soluble protein after heating vs DMSO (PISA); higher = thermal stabilisation; K562 lysate, 10 uM; active = over 0.2 and 3.5 SD of the protein, either way, in both replicates (recomputed)).
In short: (§1)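 Soluble protein was defined as the supernatant remaining after 21,000xg for 90 min, following pooling of heated aliquots and adjustment to 0.5% NP-40 at 4°C. Before that, crude K562 extract at 1 mg/mL protein in PBS pH 7.4 with 1 mM MgCl2 was treated with 10 μM compound for 30 min and heated for 3 min across 48°C-58°C. Quantification used TMTpro 16plex LC-MS/MS with channel sums equalised, and values are log-two fold changes in thermal stability relative to solvent controls from duplicates.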
SLC4A1 (UniProt P02730) was tested, and the log2 fold change was inactive: -0.121. In the case of SLC45A4 isoform 3 (UniProt Q5BKX6), the log2 fold change is reported as inactive: 0.073. For SLC35C1 (UniProt Q96A29), the log2 fold change was inactive: -0.051. SLC39A14 (UniProt Q15043) was tested, and the log2 fold change was inactive: -0.042. For SLC7A11 (UniProt Q9UPY5), the log2 fold change was inactive: 0.024. SLC5A3 (UniProt P53794) was tested, and the log2 fold change was inactive: 0.008. With SLC25A33 (UniProt Q9BSK2) the log2 fold change was inactive: 0.038. SLC25A26 (UniProt Q70HW3) was tested, and the log2 fold change was inactive: -0.028. In the case of SLC35B4 (UniProt Q969S0), the log2 fold change is reported as inactive: -0.094. In the case of SLC25A17 (UniProt O43808), the log2 fold change is reported as inactive: -0.068. For SLC35B3 (UniProt Q9H1N7), the log2 fold change was inactive: 0.133. In the case of SLC25A51 (UniProt Q9H1U9), the log2 fold change is reported as inactive: -0.022. SLC35F2 (UniProt Q8IXU6) was tested, and the log2 fold change was inactive: -0.035. SLC48A1 (UniProt Q6P1K1) was tested, and the log2 fold change was inactive: 0.313. With SLC43A1 (UniProt O75387) the log2 fold change was inactive: 0.018. For SLC29A2 (UniProt Q14542), the log2 fold change was inactive: 0.048. For SLC3A2 (UniProt F5H867), the log2 fold change was inactive: -0.078. SLC3A2 (UniProt F5GZS6) was tested, and the log2 fold change was inactive: -0.035. SLC7A1 (UniProt P30825) was tested, and the log2 fold change was inactive: -0.018. In the case of SLC7A6 (UniProt Q92536), the log2 fold change is reported as inactive: 0.178. For SLC66A1 (UniProt Q6ZP29), the log2 fold change was inactive: 0.097. With SLC5A6 (UniProt Q9Y289) the log2 fold change was inactive: 0.054. For SLC25A30 (UniProt Q5SVS4), the log2 fold change was inactive: -0.216. For SLC25A32 (UniProt Q9H2D1), the log2 fold change was inactive: 0.016. With SLC9A8 isoform 2 (UniProt Q9Y2E8) the log2 fold change was inactive: 0.067. With SLC30A6 isoform 2 (UniProt Q6NXT4) the log2 fold change was inactive: -0.071. For SLC25A46 (UniProt Q96AG3), the log2 fold change was inactive: 0.063. In the case of SLC31A1 (UniProt O15431), the log2 fold change is reported as inactive: -0.015. SLC39A7 (UniProt Q92504) was tested, and the log2 fold change was inactive: -0.057.

Each target was assayed with NC(=O)Nc1cc(-c2cccc(F)c2)sc1C(=O)N[C@H]1CCCNC1 in the same assay as above.
In short: as §1
In the case of SLC4A1 (UniProt P02730), the log2 fold change is reported as inactive: -0.078. SLC45A4 isoform 3 (UniProt Q5BKX6) was tested, and the log2 fold change was inactive: 0.025. SLC35C1 (UniProt Q96A29) was tested, and the log2 fold change was inactive: 0.15. With SLC39A14 (UniProt Q15043) the log2 fold change was inactive: -0.004. With SLC7A11 (UniProt Q9UPY5) the log2 fold change was inactive: 0.019. For SLC5A3 (UniProt P53794), the log2 fold change was inactive: 0.028. In the case of SLC22A23 (UniProt A1A5C7), the log2 fold change is reported as inactive: 0.002. SLC25A33 (UniProt Q9BSK2) was tested, and the log2 fold change was inactive: 0.023. SLC25A44 (UniProt Q96H78) was tested, and the log2 fold change was inactive: 0.044. For SLC25A26 (UniProt Q70HW3), the log2 fold change was inactive: 0.125. SLC35B4 (UniProt Q969S0) was tested, and the log2 fold change was inactive: -0.03. SLC25A17 (UniProt O43808) was tested, and the log2 fold change was inactive: 0.028. For SLC35B3 (UniProt Q9H1N7), the log2 fold change was inactive: -0.03. In the case of SLC25A51 (UniProt Q9H1U9), the log2 fold change is reported as inactive: -0.008. In the case of SLC26A2 (UniProt P50443), the log2 fold change is reported as inactive: 0.042. In the case of SLC43A1 (UniProt O75387), the log2 fold change is reported as inactive: -0.027. SLC29A2 (UniProt Q14542) was tested, and the log2 fold change was inactive: 0.088. For SLC22A5 isoform 3 (UniProt O76082), the log2 fold change was inactive: 0.129. In the case of SLC9A6 isoform 2 (UniProt Q92581), the log2 fold change is reported as inactive: -0.139. For SLC52A2 (UniProt Q9HAB3), the log2 fold change was inactive: -0.004. SLC7A1 (UniProt P30825) was tested, and the log2 fold change was inactive: -0.049. SLC7A6 (UniProt Q92536) was tested, and the log2 fold change was inactive: -0.012. For SLC39A1 (UniProt Q9NY26), the log2 fold change was inactive: -0.059. For SLC66A1 (UniProt Q6ZP29), the log2 fold change was inactive: 0.067. With SLC5A6 (UniProt Q9Y289) the log2 fold change was inactive: 0.023. For SLC25A30 (UniProt Q5SVS4), the log2 fold change was inactive: 0.024. For SLC35E1 (UniProt Q96K37), the log2 fold change was inactive: 0.023. SLC25A32 (UniProt Q9H2D1) was tested, and the log2 fold change was inactive: 0.023. SLC9A8 isoform 2 (UniProt Q9Y2E8) was tested, and the log2 fold change was inactive: 0.106. SLC2A4 (UniProt P14672) was tested, and the log2 fold change was inactive: 0.062. With SLC30A6 isoform 2 (UniProt Q6NXT4) the log2 fold change was inactive: 0.093. For SLC25A46 (UniProt Q96AG3), the log2 fold change was inactive: -0.011. SLC31A1 (UniProt O15431) was tested, and the log2 fold change was inactive: -0.011. In the case of SLC39A7 (UniProt Q92504), the log2 fold change is reported as inactive: -0.021. SLC9A7 (UniProt Q96T83) was tested, and the log2 fold change was inactive: -0.123.

Each target was assayed with NC(=O)c1cnc(N[C@@H]2CCCC[C@@H]2N)nc1Nc1cccc(-n2nccn2)c1 in the same assay as above.
In short: as §1
For SLC4A1 (UniProt P02730), the log2 fold change was inactive: 0.013. For SLC45A4 isoform 3 (UniProt Q5BKX6), the log2 fold change was inactive: -0.029. With SLC35C1 (UniProt Q96A29) the log2 fold change was inactive: -0.104. In the case of SLC39A14 (UniProt Q15043), the log2 fold change is reported as inactive: 0.027. In the case of SLC7A11 (UniProt Q9UPY5), the log2 fold change is reported as inactive: 0.001. With SLC5A3 (UniProt P53794) the log2 fold change was inactive: -0.03. In the case of SLC22A23 (UniProt A1A5C7), the log2 fold change is reported as inactive: 0.021. For SLC25A33 (UniProt Q9BSK2), the log2 fold change was inactive: -0.072. For SLC25A44 (UniProt Q96H78), the log2 fold change was inactive: 0.005. For SLC25A26 (UniProt Q70HW3), the log2 fold change was inactive: 0.062. SLC35B4 (UniProt Q969S0) was tested, and the log2 fold change was inactive: 0.007. In the case of SLC25A17 (UniProt O43808), the log2 fold change is reported as inactive: 0.038. For SLC35B3 (UniProt Q9H1N7), the log2 fold change was inactive: -0.017. SLC25A51 (UniProt Q9H1U9) was tested, and the log2 fold change was inactive: -0.054. With SLC35F2 (UniProt Q8IXU6) the log2 fold change was inactive: -0.02. In the case of SLC26A2 (UniProt P50443), the log2 fold change is reported as inactive: 0.005. SLC48A1 (UniProt Q6P1K1) was tested, and the log2 fold change was inactive: -0.116. For SLC43A1 (UniProt O75387), the log2 fold change was inactive: -0.055. With SLC29A2 (UniProt Q14542) the log2 fold change was inactive: -0.037. For SLC22A5 isoform 3 (UniProt O76082), the log2 fold change was inactive: -0.155. For SLC3A2 (UniProt F5H867), the log2 fold change was inactive: 0.06. For SLC9A6 isoform 2 (UniProt Q92581), the log2 fold change was inactive: 0.015. SLC3A2 (UniProt F5GZS6) was tested, and the log2 fold change was inactive: -0.001. For SLC52A2 (UniProt Q9HAB3), the log2 fold change was inactive: -0.074. With SLC7A1 (UniProt P30825) the log2 fold change was inactive: -0.007. With SLC7A6 (UniProt Q92536) the log2 fold change was inactive: -0.007. With SLC39A1 (UniProt Q9NY26) the log2 fold change was inactive: -0.221. For SLC66A1 (UniProt Q6ZP29), the log2 fold change was inactive: 0.154. For SLC5A6 (UniProt Q9Y289), the log2 fold change was inactive: -0.068. For SLC25A30 (UniProt Q5SVS4), the log2 fold change was inactive: -0.015. With SLC35E1 (UniProt Q96K37) the log2 fold change was inactive: -0.013. For SLC25A32 (UniProt Q9H2D1), the log2 fold change was inactive: -0.029. In the case of SLC9A8 isoform 2 (UniProt Q9Y2E8), the log2 fold change is reported as inactive: 0.058. For SLC2A4 (UniProt P14672), the log2 fold change was inactive: -0.039. SLC30A6 isoform 2 (UniProt Q6NXT4) was tested, and the log2 fold change was inactive: 0.012. With SLC25A46 (UniProt Q96AG3) the log2 fold change was inactive: 0.029. In the case of SLC31A1 (UniProt O15431), the log2 fold change is reported as inactive: -0.189. SLC39A7 (UniProt Q92504) was tested, and the log2 fold change was inactive: 0.009. For SLC9A7 (UniProt Q96T83), the log2 fold change was inactive: 0.139.
